Measured values: publication PMC9137698, “Development of New Antimycobacterial Sulfonyl Hydrazones and 4-Methyl-1,2,3-thiadiazole-Based Hydrazone Derivatives” (Antibiotics, 2022)

Tests used:
[1] = system: HEK-293 (human embryonic kidney 293) cells; assay: MTT cytotoxicity assay, HEK-293; assay type: cell-based; settings: SI ratio = IC50/MIC; column head HEK-293
Description: (§1) The cytostatic activity of the investigational compounds was determined using a standard MTT-based colorimetric assay for evaluating cell viability. HEK-293 and CCL-1 cells were harvested and seeded (100 µL/well) in 96-well plates at a density of 3 × 10^5. Following a 24 h incubation, the cells were treated with serial dilutions of the tested compounds in the concentration range of 200.0–12.5 µM. Following an exposure time of 72 h, a filter-sterilized MTT substrate solution (5 mg/mL in PBS) was added to each well of the culture plate. A further 1–4 h incubation allowed the formation of purple insoluble precipitates of the formazan dye. The latter was dissolved in an isopropyl alcohol solution containing 5% formic acid for absorbance measurement at 550 nm. The collected absorbance values were blanked against MTT-and isopropanol solution and normalized to the mean value of the untreated control (100% cell viability).
(§2) Semi-logarithmic “dose-response” curves were computed using nonlinear regression in GraphPad Prism® 8.0. The antiproliferative potential of the studied compounds was rated according to the calculated half-maximal inhibitory concentrations (IC50 values).

[2] = system: CCL-1 mouse fibroblast cell line; assay: MTT cytotoxicity assay, CCL-1; assay type: cell-based; settings: SI ratio = IC50/MIC; column head CCL-1
Description: as §1, §2

Compound | SI d HEK-293 [1] | SI d CCL-1 [2]
O=c1oc2ccccc2c(Cl)c1/C=N/NS(=O)(=O)c1ccccc1 [5a, N’-[(E)-(4-chloro-2-oxo-2H-1-benzopyran-3-yl)-methylidene]benzenesulfonohydrazide] | 463 | 267
O=S(=O)(N/N=C/c1ccc(Cl)cc1)c1ccccc1 [5i, N’-[(E)-(4-chlorophenyl)methylidene]benzenesulfonohydrazide] | 679 | 892
O=S(=O)(N/N=C/c1c[nH]c2ccc(OCc3ccccc3)cc12)c1ccccc1 [5c] | 95 | 945
O=S(=O)(N/N=C/c1c[nH]c2ccc(Cl)cc12)c1ccccc1 [5d, N’-[(E)-(5-chloro-1H-indol-3-yl)methylidene]benzenesulfonohydrazide] | 97 | 11
COc1ccc2c(c1)c(/C=N/NC(=O)c1snnc1C)cn2C [3b, N’-[(E)-(5-methoxy-1-methyl-1H-indol-3-yl)methylidene]-4-methyl-1,2,3-thiadiazole-5-carbohydrazide] | 1244 | 2487
O=[N+]([O-])c1ccc(/C=N/NS(=O)(=O)c2ccccc2)cc1 [5g, N’-[(E)-(4-nitrophenyl)methylidene]benzenesulfonohydrazide] | 1819 | 1812
O=S(=O)(N/N=C/C=C/c1ccccc1)c1ccccc1 [5k, N’-[(1E,2E)-3-phenylprop-2-en-1-ylidene]benzenesulfonohydrazid] | 2216 | 3380
Cc1nnsc1C(=O)N/N=C/c1c(Cl)c2ccccc2oc1=O [3a, N’-[(E)-(4-chloro-2-oxo-2H-1-benzopyran-3-yl)methylidene]-4-methyl-1,2,3-thiadiazole-5-carbohydrazide] | 130 | 84
O=[N+]([O-])c1ccccc1/C=N/NS(=O)(=O)c1ccccc1 [5f, N’-[(E)-(2-nitrophenyl)methylidene]benzenesulfonohydrazide] | 327 | 237
Cc1nnsc1C(=O)N/N=C/c1c[nH]c2ccc(OCc3ccccc3)cc12 [3c, N’-((E)-[5-(benzyloxy)-1H-indol-3-yl]methylidene)-4-methyl-1,2,3-thiadiazole-5-carbohydrazide] | 4093 | 2242
COc1ccc(/C=N/NS(=O)(=O)c2ccccc2)cc1OC [5j, N’-[(E)-(3,4-dimethoxyphenyl)methylidene]benzenesulfonohydrazide] | 260 | 146
COc1cc(/C=N/NC(=O)c2snnc2C)ccc1O [3d, N’-[(E)-(4-hydroxy-3-methoxyphenyl)methylidene]-4-methyl-1,2,3-thiadiazole-5-carbohydrazide] | 2979 | 3516
COc1ccc2[nH]cc(/C=N/NS(=O)(=O)c3ccccc3)c2c1 [5e, N’-[(E)-(5-methoxy-1H-indol-3-yl)methylidene]benzenesulfonohydrazide] | 95 | 31
COc1ccc2c(c1)c(/C=N/NS(=O)(=O)c1ccccc1)cn2C [5b, N’-[(E)-(5-methoxy-1-methyl-1H-indol-3-yl)methylidene]benzenesulfonohydrazide] | 82 | 14
N’-[(E)-(3-hydroxy-4-methoxyphenyl)methylidene]benzenesulfonohydrazide [5h] | 696 | 469
